Columns and labels:
NRDP1 = assay: GFPu assay selectivity screen, cells transfected with NRDP1; type: cell-based; settings: Hill Slope of NRDP dose response curve
Excerpt: (§1) The first is the RING finger ligase NRDP1 as a molecule structurally and functionally similar to Parkin. The second is the Cystic Fibrosis Transmembrane Conductance Regulator (CFTR) as a molecule that is a twelve-pass membrane channel protein, and structurally not related to Parkin.
(§2) Dose response curves were generated by exposing cells to compounds at various concentrations. […] “Hill” refers to the Hill Slope.

CFTR = assay: GFPu assay selectivity screen, cells transfected with CFTR; type: cell-based; settings: Hill Slope of CFTR dose response curve
Excerpt: as §1, §2

Structure (SMILES): O=C(O)CCCc1ccc(N(CCCl)CCCl)cc1 [ELN29018, chlorambucil]
- NRDP Hill (NRDP1): 0.945
- CFTR Hill (CFTR): 0.312

Structure (SMILES): O=c1[nH]cc(F)c(=O)[nH]1 [ELN29019, 5-fluoruracil]
- NRDP Hill (NRDP1): 1.8
- CFTR Hill (CFTR): 15

Structure (SMILES): Nc1ncn([C@@H]2O[C@H](CO)[C@@H](O)[C@H]2O)c(=O)n1 [ELN476201, 5-azacytidine]
- NRDP Hill (NRDP1): 1.1

Structure (SMILES): O=C(N[C@@H](Cc1ccccc1)C(=O)CCl)OCc1ccccc1 [ELN476309, ZPCK]
- NRDP Hill (NRDP1): 1.23
- CFTR Hill (CFTR): 1.53

Structure (SMILES): O=C1c2c(O)ccc(O)c2C(=O)c2c(NCCNCCO)ccc(NCCNCCO)c21 [ELN476491, mitoxantrone]
- NRDP Hill (NRDP1): 9.5
- CFTR Hill (CFTR): 8.178

Structure (SMILES): Cc1ccc(S(=O)(=O)N[C@@H](Cc2ccccc2)C(=O)CCl)cc1 [ELN477056, TPCK]
- NRDP Hill (NRDP1): 2.62

From US8017348B1, “Assay for Parkinson's Disease therapeutics” (Elan Pharma International Limited, priority 2005, dated 2011)
